PubChem BioAssay AID1671190 (National Center for Advancing Translational Sciences (NCATS), 2021)
Out of some 580,000 compounds screened, about 6,100 (1.1%) were called active. This list was built around the results that the source calls inconclusive (neither active nor inactive); the mix of calls is not that of the screen. The call rests on the fitted dose curve; in most records, active means well fitted inhibition curve with a large enough effect; inconclusive means small, poorly fitted or top-dose-only effect, or another doubt; inactive means no such curve, though single readings can be large or run the other way. Potencies beside an inconclusive call are fits to weak or partial responses and may not hold up.

Chains of the proteins cited; added tags and fusions are not shown.
UniProt P18054, whole entry, looked up: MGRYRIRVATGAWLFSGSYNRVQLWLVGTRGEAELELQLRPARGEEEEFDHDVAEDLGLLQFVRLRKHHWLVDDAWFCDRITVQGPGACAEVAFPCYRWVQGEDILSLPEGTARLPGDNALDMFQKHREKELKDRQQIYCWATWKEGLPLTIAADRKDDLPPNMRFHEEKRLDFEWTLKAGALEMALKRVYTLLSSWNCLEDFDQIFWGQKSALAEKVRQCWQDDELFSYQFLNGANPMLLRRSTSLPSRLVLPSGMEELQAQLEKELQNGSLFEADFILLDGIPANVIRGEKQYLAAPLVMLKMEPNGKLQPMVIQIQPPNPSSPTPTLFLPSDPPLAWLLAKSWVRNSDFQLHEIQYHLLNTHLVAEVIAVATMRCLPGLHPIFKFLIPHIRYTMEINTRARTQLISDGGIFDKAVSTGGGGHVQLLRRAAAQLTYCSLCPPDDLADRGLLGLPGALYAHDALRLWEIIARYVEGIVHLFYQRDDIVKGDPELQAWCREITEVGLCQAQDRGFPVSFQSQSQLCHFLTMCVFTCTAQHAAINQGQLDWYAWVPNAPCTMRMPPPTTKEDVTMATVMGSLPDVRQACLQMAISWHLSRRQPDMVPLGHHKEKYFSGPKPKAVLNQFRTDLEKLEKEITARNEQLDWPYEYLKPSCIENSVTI

Biological target: Polyunsaturated fatty acid lipoxygenase ALOX12 (Homo sapiens) (UniProt P18054)
Experiment: Primary qHTS assay for inhibitors of human arachidonate 12S-lipoxygenase (ALOX12): Round 2
Conditions: purified 12hLO, xylenol orange hydroperoxide absorbance; activity change, negative = inhibition: at 108 µM (top of the series) unless noted
Method in brief: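 Purified human 12hLO (150 nM final) in 25 mM Hepes, 0.01% Triton X-100, pH 7.0 was preincubated 15 min at room temperature with compound. Then 40 uM arachidonic acid was added, 30 min. Hydroperoxide was read by Fe-XO absorbance ratio 573/405 nm.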
On the % scale 0 is the no-effect control and ±100 the full control effect; potency means the concentration at half of the fitted maximal effect.

Row | SMILES | Potency | activity change, negative = inhibition
1 | CN(CC(=O)O)S(N)(=O)=O | inconclusive: 4.47 µM [inhibitor, full curve, poor fit] | 
2 | CNc1cccc(-c2ccc(N3CCN(C)CC3)nc2)n1 | inconclusive: 7.94 µM [inhibitor, full curve, poor fit] | 
3 | CCCCOc1ccc(/C=C/C(=O)c2ccc3c(c2)OCCO3)cc1OC | inconclusive: 28.2 µM [inhibitor, partial curve] | 
4 | O=S(=O)(O)c1cccnc1SCc1ccccc1 | inconclusive: 31.6 µM [inhibitor, single point] | 
5 | O=C(Nc1cccc(F)c1)[C@@H]1C[C@@H](c2ccc(F)cc2)N([S+](=O)([O-])c2cccnc2)C1 | inconclusive: 89.1 µM [inhibitor, partial curve, poor fit] | 
6 | Cc1nc(C(=O)N(C)C)nn1-c1cc(Cl)ccc1Cl | inconclusive: 50.1 µM [inhibitor, single point] | 
7 | O=C(NCc1ccc2c(c1)CCN2C(=O)c1ccccc1)c1ccc(Br)o1 | inconclusive: 126 µM [inhibitor, partial curve, poor fit] | 
8 | COc1cccc(C(CNc2ccc(S(=O)(=O)N3CCN(C)CC3)cc2[N+](=O)[O-])N(C)C)c1 (stereo unspecified) | inconclusive: 44.7 µM [inhibitor, partial curve, poor fit] | 
9 | COC(=O)c1c(C)oc2ccc(OC(=O)C(C)(C)C)cc12 |  | inactive: -4.86%
10 | CC(C)(C)S(=O)N1Cc2cc(C(=O)NCc3ccc(Oc4ccccc4)cc3)nc(-c3cccc(-c4cc5ccccc5o4)c3)c2[C@H]1CCO (stereo partly specified) | inconclusive: 25.1 µM [inhibitor, partial curve, poor fit] | 
11 | COC(=O)c1ccc(NC(=O)NC2CCCCC2)cc1 | inconclusive: 141 µM [inhibitor, partial curve, poor fit] | 
12 | O=C(O)CSc1ccc2nnc(-c3cccnc3)n2n1 |  | inactive: -25.5%
13 | CN(C)c1ccc(CN(Cc2ccco2)C(=O)c2ccco2)cc1 |  | inactive: 2.01%
14 | NC(COCc1ccccc1)c1csc(Nc2ccc(C(=O)c3ccccc3)cc2)n1 (stereo unspecified) |  | inactive: -26.2%
15 | CC(C)CCC1(C)NC(=O)N(c2ccc(Br)cc2)N1 (stereo unspecified) | inconclusive: 56.2 µM [inhibitor, partial curve, poor fit] | 
16 | CCC(c1nnnn1Cc1ccco1)N1CCC(C(N)=O)CC1 (stereo unspecified) | inconclusive: 35.5 µM [inhibitor, partial curve, poor fit] | 
17 | O=C(COc1cccc(Cl)c1)NC1CCCN(c2ncccn2)C1 (stereo unspecified) |  | inactive: 6.3%
18 | CN(C(=O)c1cccc(NC(=O)Cc2ccc(NC(=O)C3CCN(C(=O)C4CC4)CC3)cc2)c1)C1CC1 | inconclusive: 31.6 µM [inhibitor, single point] | 
19 | CCc1ccc(NC(=O)OC)cc1 | inconclusive: 35.5 µM [inhibitor, partial curve, poor fit] | 
20 | COc1ccc(CN2CC(=O)N(c3cc(Cl)ccc3C)C2=S)cc1OC |  | inactive: -20.3%
21 | COc1cc2c(C)nc3onc(-c4ccccc4)c3c2cc1OC | inconclusive: 0.501 µM [inhibitor, full curve, poor fit] | 
22 | COC(=O)c1ccc2nc(-c3ccco3)c(Cc3cccc(F)c3)n2c1 | inconclusive: 14.1 µM [inhibitor, partial curve, poor fit] | 

Row | SMILES | Potency | activity change, negative = inhibition
23 | CC1(C(=O)Nc2cccc3ncccc23)CCN1C(=O)CCc1ccccc1 (stereo unspecified) |  | inactive: 5.24%
24 | Cc1cccc(NC(=S)N/N=C/c2ccc([N+](=O)[O-])s2)c1 | inconclusive: 25.1 µM [inhibitor, partial curve, poor fit] | 
25 | Cc1c(Cl)cccc1-c1ccc(C=O)o1 | inconclusive: 44.7 µM [inhibitor, partial curve, poor fit] | 
26 | CCOC(=O)C1=C(C)OC(=Cc2ccccc2)C1=O |  | inactive: -23.7%
27 | COc1ccc(Cl)cc1NC(=O)Cn1c2c(c(=O)n1-c1ccccc1)Cc1cccc(OC)c1O2 |  | inactive: -9.29%
28 | C=CCNC(=S)Nc1sc2c(c1C#N)CCCC2 | inconclusive: 50.1 µM [inhibitor, partial curve, poor fit] | 
29 | O=C(NCCN1CCC(n2c(=O)[nH]c3cc(Cl)ccc32)CC1)c1ccc(F)cc1 | active: 39.8 µM | 
30 | C#CCNC(=O)[C@@H]1CCCN1[C@@H](C(=O)NC)c1ccccc1OC | inconclusive: 11.2 µM [inhibitor, partial curve] | 
31 | Cc1cc(C)cc(NC(=O)C2CCN(S(=O)(=O)c3c(C)noc3/C=C/c3ccco3)CC2)c1 | inconclusive: 112 µM [inhibitor, partial curve, poor fit] | 
32 | C[C@H](c1ccccc1)N1C(=O)[C@@H]2CN(C(=O)CC(C)(C)CC(=O)O)CCN2C1=O | inconclusive: 28.2 µM [inhibitor, partial curve, poor fit] | 
33 | Brc1ccc(-c2noc(-c3ccco3)n2)o1 | inconclusive: 44.7 µM [inhibitor, partial curve, poor fit] | 
34 | C/C(=N\NC(=S)Nc1cccc(C)c1)c1cc2ccccc2o1 | active: 35.5 µM | 
35 | CC(C(=O)Nc1ccc(O)cc1C(=O)O)N1C(=O)/C(=C\c2cccs2)SC1=S (stereo unspecified) | active: 31.6 µM | 
36 | O=C1c2ccccc2C(Cc2ccncc2)(Cc2ccncc2)c2ccccc21 | inconclusive: 6.31 µM [inhibitor, full curve, poor fit] | 
37 | Cc1nc(SCC(=O)c2ccc(F)c(F)c2)[nH]c(=O)c1Oc1ccc(Cl)cc1 | inconclusive: 100 µM [inhibitor, partial curve, poor fit] | 
38 | Cc1ccc(NC(=S)N/N=C2\CC(C)(C)Oc3ccc(O)cc32)cc1 | inconclusive: 44.7 µM [inhibitor, partial curve, poor fit] | 
39 | Cc1nc(N)nc(COc2ccccc2)n1 | inconclusive: 1.41 µM [inhibitor, full curve, poor fit] | 
40 | CSc1nc2ccc(Nc3nc(N4CCOCC4)nc(N4CCOCC4)n3)cc2s1 |  | inactive: 0%
41 | CCOC(=O)C1(Cc2cccc(OC)c2)CCN(Cc2cc(OC)ccc2OC)CC1 |  | inactive: -3.62%
42 | Cc1ccc(OCc2nc(C#N)c(NCc3ccc4c(c3)OCO4)o2)cc1 | inconclusive: 44.7 µM [inhibitor, partial curve, poor fit] | 
43 | O=C(CCCc1c[nH]c2ccccc12)NCc1ccc2c(c1)OCO2 | inconclusive: 100 µM [inhibitor, single point] | 
44 | Cc1nn(C)cc1S(=O)(=O)Nc1ncccn1 | inconclusive: 50.1 µM [inhibitor, partial curve, poor fit] | 

2 entries from above, with each value named.
O=C1c2ccccc2C(Cc2ccncc2)(Cc2ccncc2)c2ccccc21
  Potency: inconclusive: 6.31 µM [inhibitor, full curve, poor fit]
CCOC(=O)C1(Cc2cccc(OC)c2)CCN(Cc2cc(OC)ccc2OC)CC1
  activity change, negative = inhibition: inactive: -3.62%

Additional records.

Row | SMILES | Potency | activity change, negative = inhibition
45 | CN1CCN(S(=O)(=O)c2cc3cc(Cl)ccc3oc2=O)CC1 |  | inactive: 16.8%
46 | Fc1cccc(Cl)c1C1Nc2cccc3cccc(c23)N1 | inconclusive: 56.2 µM [inhibitor, partial curve, poor fit] | 
47 | COC(=O)c1ccc2c(c1)nc1n2[C@@H](CNCc2ccc(S(C)(=O)=O)cc2)COC1 | inconclusive: 39.8 µM [inhibitor, partial curve, poor fit] | 
48 | CC1CCN(CCCOc2ccc(Br)cc2Cl)CC1 | inconclusive: 2.51 µM [inhibitor, full curve, poor fit] | 
49 | CCCc1nc2nc(-c3ccc(OC)cc3)cc(=O)n2[nH]1 | inconclusive: 70.8 µM [inhibitor, partial curve, poor fit] | 
50 | O=S(=O)(c1ccc(=S)[nH]n1)C1CCCCC1 | inconclusive: 4.47 µM [inhibitor, full curve, poor fit] | 
51 | O=C(Cc1ccc2c(c1)OCCO2)c1c(O)cc(O)cc1O | inconclusive: 25.1 µM [inhibitor, partial curve, poor fit] | 
52 | O=C(COC(=O)c1ccc[n+]([O-])c1)Nc1cc([N+](=O)[O-])ccc1Cl | inconclusive: 112 µM [inhibitor, partial curve, poor fit] | 
53 | NC1(N2SC(S)=C3CCCC=C32)CCCCC1 | inconclusive: 35.5 µM [inhibitor, partial curve, poor fit] | 
54 | CC(C)CC(=O)Nc1ccc2nn(-c3ccccc3)nc2c1 |  | inactive: 2.91%
55 | CC(=O)NC(c1cccc(F)c1)c1nc(-c2cccc(C(C)C)c2)cs1 (stereo unspecified) |  | inactive: -23.6%
56 | Cc1cccn2c(=S)[nH]nc12 | inconclusive: 44.7 µM [inhibitor, partial curve, poor fit] | 
57 | O=[N+]([O-])c1cc(CN2CCN(c3cccc(C(F)(F)F)c3)CC2)c2cccnc2c1O | inconclusive: 100 µM [inhibitor, partial curve, poor fit] | 
58 | COc1cc(OC)cc(C(=O)N[C@H](C(=O)Nc2nc3c(s2)CCCC3)C(C)C)c1 |  | inactive: -14.5%
59 | CCCCOc1ccc(-c2n[nH]c(=S)n2Cc2ccccc2)cc1 | inconclusive: 3.16 µM [inhibitor, full curve, poor fit] | 
60 | COc1cc([C@H]2[C@@H](C(=O)O)c3ccccc3C(=O)N2Cc2ccc(F)cc2)cc(OC)c1OC | inconclusive: 44.7 µM [inhibitor, partial curve] | 
61 | Cc1cc(C(=O)Nc2ccc(S(=O)(=O)N3CCCCCC3)cc2)no1 |  | inactive: -14.3%
62 | CCCc1ccccc1OCCNC(C)=O |  | inactive: 80.4%
63 | Cc1nn2c(c1-c1ccccc1Oc1ccccc1)N(Cc1ccccc1O)CCC2 | inconclusive: 14.1 µM [inhibitor, full curve] | 
64 | O=[N+]([O-])c1ccc(COc2ccc(CN3CCOCC3)cc2)cc1 |  | inactive: -18.2%
65 | CCc1ccc2nc(-c3ccncc3)cc(C(=O)O)c2c1 | inconclusive: 7.94 µM [inhibitor, full curve, poor fit] | 
66 | Cc1ccc(-c2nc3cc(NC(=O)/C=C/c4ccco4)ccc3o2)cc1 | inconclusive: 25.1 µM [inhibitor, partial curve] | 

Whole records, quoted from the list.
CC(=O)NC(c1cccc(F)c1)c1nc(-c2cccc(C(C)C)c2)cs1 (stereo unspecified) is entered as activity change, negative = inhibition: inactive: -23.6%
CCCc1ccccc1OCCNC(C)=O is entered as activity change, negative = inhibition: inactive: 80.4%
CCCCOc1ccc(-c2n[nH]c(=S)n2Cc2ccccc2)cc1 is entered as Potency: inconclusive: 3.16 µM [inhibitor, full curve, poor fit]
Cc1nn2c(c1-c1ccccc1Oc1ccccc1)N(Cc1ccccc1O)CCC2 is entered as Potency: inconclusive: 14.1 µM [inhibitor, full curve]
